The structures appear in SMILES notation. Screen size: about 210,000 compounds; about 5,900 (2.8%) were called active. Another 5% or so got no clear call; they are omitted. Calls come from the whole dose curve; as a rule, active = well fitted activation curve with a large enough effect; inconclusive = small, poorly fitted or top-dose-only effect; inactive = no such curve, though single readings can be large or run the other way. Only a part is listed here, and it is no random draw. Where no call is shown, the source filed none.
Potency is the fitted concentration of half-maximal effect.

A short description of the assay: qHTS Assay for Enhancers of SMN2 Splice Variant Expression. For activity change, positive = activation: % of control where 0% means no effect. Note: nearly all actives have a fitted effect of over 55% in size. The settings on record: HEK293 SMN2-luciferase splicing reporter, luminescence, 30-36 h; activity change, positive = activation: at 46.1 µM (top of the series) unless noted. From the text: NIH Chemical Genomics Center [NCGC] NIH Molecular Libraries Probe Production centers Network [MLPCN] MLPCN Grant: R03 MH084179-01 Assay Submitter (PI): Elliot Androphy NCGC Assay Overview: Spinal muscular atrophy (SMA) is caused by insufficient levels of the survival motor neuron protein SMN. The SMN locus on chromosome 5q13 contains two inverted copies of SMN called SMN1 and SMN2 which are 99% identical at the amino acid level. SMN1 is a fully functional protein and SMN2 skips exon 7 90% of the time. Skipping of exon 7 produces non-functional protein product. 10% of the SMN2 protein includes exon 7 and is fully functional. In the SMA disease state, mutations in the SMN1 locus are the cause of the disease state. Because only 10% of SMN2 is of the fully functional form, it is not sufficient to overcome the deficiency produced by the loss of the SMN1 product. A therapy that either increase the amount of SMN2 product made or to increase the inclusion of exon 7 has been proposed for the treatment of SMA. We have designed an assay to identify small molecules that can increase the amount of functional SMN2 product by appending a luciferase reporter gene after the native SMN2 gene, such that inclusion of exon 7 in the expressed product places the luciferase sequence in frame, thus generating functional luciferase enzyme.
NCGC Assay Protocol Summary: This screen utilizes a luciferase reporter gene assay, combining the promoter and splicing based cassettes in tandem with the major portion of the native SMN2 cDNA, and then transfected into HEK293 cells. Compounds that increase luciferase signal presumably enhance expression of the functional SMN2 splice variant. Passaging media contained DMEM w/ glutamax (+phenol red) 10% FCS, 1x pen/strep, 200 ug/ml hygro, 1x sodium pyruvate. Assay media contained DMEM w/ glutamax (-phenol red) 10% FCS, 1x pen strep, 1x pyruvate Sequence, Parameter, Value, Description (1) Cells, […], 2000 cells/well, 1536 TC treated White solid bottom plate (2) Time, 10-12 hours, 37C 5% CO2 (3) Compound, 23 nl, MLSMR Library (4) Control Compound, 23 nL, Sodium butyrate st 4.5mM (final) conc (5) Time, 30-36 hours, 37C 5% CO2 (6) Reagent, 3 ul, One Glo (TM) from Promega (7) Time, 5-15 minutes, Room temp (8) Detector, Viewlux: luminescent read, 60 second integration, high speed 2x binning Keywords: Spinal muscular atrophy, SMA, SMN2, high throughput screening, MLSMR, MLPCN, NIH Roadmap, qHTS and NCGC
(In general: Quantitative high-throughput screening tests each substance at several concentrations.)
Consider `C=CCNC(=O)NC(=O)COC(=O)/C(C#N)=C/c1cc(C)n(CC(C)C)c1C`, for which the activity change, positive = activation is -37.2%.

Take `CCN1CCCc2cc(CN(CCN3CCOCC3)C(=S)Nc3ccc(OC)cc3)ccc21`: the activity change, positive = activation was -0.499%.

In the case of `COc1ccc(C(=O)C[n+]2ccccc2C)cc1`, the activity change, positive = activation is -46.7%.

Consider `CCCSc1ncc(Cl)c(C(=O)N2CCN(c3ccc(OC)cc3)CC2)n1`, for which the “activity change, positive = activation” value was inactive: -32.9%.

In the case of `O=C(O)C[C@H](NC(=O)CP(=O)(O)O)C(=O)O.[NH-][C@@H]1CCCC[C@@H]1[NH-].[Pt]`, the Potency was active: 2.51 µM.

For `CCCCN1C(=O)c2ccc(C(=O)NC3=NCCS3)cc2C1=O`, the activity change, positive = activation stood at 34%.

On to `COc1ccc(/C=C/c2nnc(NC(=O)COc3ccc(C)cc3)s2)cc1`, for which the Potency was active: 5.01 µM.

On to `c1ccc2c(c1)CCN(c1ncnc3c1[nH]c1ccccc13)C2`, for which the activity change, positive = activation was -74.5%.

Consider `C/C(=C\C(=O)c1ccccc1)Nc1ccc(O)cc1`, for which the activity change, positive = activation came to 47.9%.

Regarding `COc1ccc(Cc2nc(C(=O)Nc3ccc(F)cc3)cs2)cc1`, the “activity change, positive = activation” value was inactive: -32%.

Take `CCOC(=O)c1cnn(-c2ccccn2)c1N`: the activity change, positive = activation came out at 53.8%.

On to `COc1cc2[nH]c(=S)nc(NCCCOC(C)C)c2cc1OC`, for which the activity change, positive = activation is -54.2%.

With `CCCn1c(CC)nc([N+](=O)[O-])c1Sc1ccc(F)cc1`, the activity change, positive = activation was -43.5%.

As for `COc1ccc(-c2csc(-n3ncc(-c4ccccn4)c3N)n2)cc1`, the “activity change, positive = activation” value was inactive: -52%.

As for `O=C(COc1ccccc1)Nc1nc(-c2ccc(S(=O)(=O)N3CCOCC3)cc2)cs1`, the “activity change, positive = activation” value was inactive: -38.1%.

`COC(=O)Cc1ccc(N(Cc2ccccc2F)S(=O)(=O)c2ccc(C)cc2)cc1`: the activity change, positive = activation was -33.5%.

As to `COc1ccc(CCNC(=O)C(=O)NCC2OCCN2S(=O)(=O)c2ccc(Br)cc2)cc1` (stereo not given), the activity change, positive = activation is -79.2%.

Turning to `O=C(CCCC(=O)N(CC(=O)NC1CCCCC1)Cc1ccccc1)Nc1ccccn1`, the activity change, positive = activation stood at 38.6%.

As for `Cc1csc(NC(=O)CSc2nncn2C)n1`, the activity change, positive = activation was determined as 35.6%.

Regarding `Nc1cc(-c2nc3ncccc3o2)ccc1Cl`, the Potency was active: 10 µM.

For the molecule `Oc1ccccc1C1Nc2cccc3cccc(c23)N1`, the activity change, positive = activation was -44.7%.

As for `Cc1cc(C)nc(SCC(=O)Nc2ncc(Cc3cccc(Cl)c3Cl)s2)n1`, the activity change, positive = activation is -29.5%.

For the molecule `CC(=O)C1=C(c2ccc(Br)cc2)C(=O)c2ccccc2C1=O`, the “activity change, positive = activation” value was inactive: -109%.

With `COC(=O)c1ccccc1NC(=O)COC(=O)c1cccnc1`, the activity change, positive = activation was 33.5%.

Consider `CCC1CN(C(=O)Nc2ccc(C)cc2)c2cc(C)ccc2O1` (stereo not given), for which the “activity change, positive = activation” value is inactive: -32%.

`COc1ccccc1/C=C/C(=O)c1ccc(NC(C)=O)cc1`: the activity change, positive = activation is -31.5%.

Consider `CCOC(=O)c1sc(NC(=O)CSc2n[nH]c(-c3ccncc3)n2)c(C#N)c1C`, for which the activity change, positive = activation was -30.5%.

For `Cc1nn(S(=O)(=O)c2ccc(Cl)cc2)c(C)c1Sc1ccc([N+](=O)[O-])cc1`, the activity change, positive = activation was -65.6%.

Consider `Cc1ccc(NC(=O)CN(c2ccccc2)S(=O)(=O)N(C)C)cc1Cl`, for which the “activity change, positive = activation” value is inactive: -33%.

For the molecule `COCCCN1C(=O)CC(C(=O)OC)=C1C`, the activity change, positive = activation was -38.3%.
